Laboratory results: US20120264684A1, “Glycosylated Form of Antigenic GLP-1 Analogue” (priority 2009, published 2012)
For at least one compound, name, drawing or mass did not settle the structure.

System: C57BL/6JJcl mice
Experiment: Oral glucose tolerance test (OGTT) of oligosaccharide chain added liraglutide
Type: in vivo
Conditions: 9 nmol/10 ml PBS, 10 ml/kg i.p., 30 minutes before oral glucose 1 mg/g; fasted C57BL/6JJcl mice
Description: Blood glucose suppressing activity by OGTT can be determined by measuring blood glucose elevation suppression when mice are force-fed sugar. For example, first, a test compound is administered to mice fasted overnight, and glucose solution is orally administered 30 minutes later. Blood glucose in mice will rise from the administration of glucose, reach maximum at about 30 minutes after administration, and then slowly decrease. The blood glucose suppressing action of the oligosaccharide, chain added antigenic GLP-1 analogue can be evaluated by measuring blood glucose 30 minutes after administration of glucose, and comparing it to blood glucose when non-oligosaccharide chain added antigenic GLP-1 analogue is administered. […] Orbital blood was collected before administration of glucose, as well as 30 minutes, 60 minutes, and 120 minutes after administration of glucose, and blood glucose was measured using Accu-Chek Aviva (Roche Diagnostics).

With CCCCCCCCCCCCCCCC(=O)N[C@@H](CCC(=O)NCCCC[C@H](NC(=O)[C@H](C)NC(=O)[C@H](C)NC(=O)[C@H](CCC(N)=O)NC(=O)CNC(=O)[C@H](CCC(=O)O)NC(=O)[C@H](CC(C)C)NC(=O)[C@H](Cc1ccc(O)cc1)NC(=O)[C@H](CO)NC(=O)[C@H](CO)NC(=O)[C@@H](NC(=O)[C@H](CC(=O)O)NC(=O)[C@H](CO)NC(=O)[C@@H](NC(=O)[C@H](Cc1ccccc1)NC(=O)[C@@H](NC(=O)CNC(=O)[C@H](CCC(=O)O)NC(=O)[C@H](C)NC(=O)[C@@H](N)Cc1cnc[nH]1)[C@@H](C)O)[C@@H](C)O)C(C)C)C(=O)N[C@@H](CCC(=O)O)C(=O)N[C@@H](Cc1ccccc1)C(=O)N[C@H](C(=O)N[C@@H](C)C(=O)N[C@@H](Cc1c[nH]c2ccccc12)C(=O)N[C@@H](CC(C)C)C(=O)N[C@H](C(=O)N[C@@H](CCCNC(=N)N)C(=O)NCC(=O)N[C@@H](CCCNC(=N)N)C(=O)NCC(=O)O)C(C)C)[C@@H](C)CC)C(=O)O [Liraglutide, reference compound] the “blood glucose elevation suppressive action (OGTT)” value was “blood glucose elevation suppressive action higher than vehicle (PBS only) and GLP-1”.
